Reference: article PMC12307814, “The structure of the Tad pilus alignment complex reveals a periplasmic conduit for pilus extension” (Nature Communications, 2025)
No constants are given. Whether binding was seen depends on the method and setting.

Tests used:
[1] = target: RcpC lacking the L3 linker and the β-hairpin region (RcpC_(33-233)) (Pseudomonas aeruginosa) (UniProt Q9HW95); assay: SEC-MALS; single purified protein; 50 uL at 2 mg/mL on a WTC 015S5 column, 50 mM HEPES, 150 mM NaCl, 200 mM arginine, 1 mM TCEP, pH 8.0, 0.8 mL/min; both purified
[2] = target: RcpC lacking the L3 linker and the β-hairpin region (RcpC_(33-233)) (Pseudomonas aeruginosa) (UniProt Q9HW95); assay: SEC; single purified protein on Superose 6 Increase 10/300 GL, 50 mM HEPES, 150 mM NaCl, 200 mM arginine, 1 mM TCEP, pH 8.0; both purified

Q: Which binding [1] does the source give for “RcpC lacking the L3 linker and the β-hairpin region (RcpC_(33-233)) (from UniProt Q9HW95 33-233) (domain or fragment)” here?
A: no binding

Q: And the binding [2]?
A: no binding
